The values below come from article PMC12376690.

Amino acid sequences for entries named in this document (tags omitted). A change or cut given only in a name is not applied to a line headed by its entry.
UniProt B2UKV9: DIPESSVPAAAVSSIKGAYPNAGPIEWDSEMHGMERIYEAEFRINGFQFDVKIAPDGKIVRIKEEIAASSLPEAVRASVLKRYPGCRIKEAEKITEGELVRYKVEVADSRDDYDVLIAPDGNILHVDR
UniProt Q6PIJ4: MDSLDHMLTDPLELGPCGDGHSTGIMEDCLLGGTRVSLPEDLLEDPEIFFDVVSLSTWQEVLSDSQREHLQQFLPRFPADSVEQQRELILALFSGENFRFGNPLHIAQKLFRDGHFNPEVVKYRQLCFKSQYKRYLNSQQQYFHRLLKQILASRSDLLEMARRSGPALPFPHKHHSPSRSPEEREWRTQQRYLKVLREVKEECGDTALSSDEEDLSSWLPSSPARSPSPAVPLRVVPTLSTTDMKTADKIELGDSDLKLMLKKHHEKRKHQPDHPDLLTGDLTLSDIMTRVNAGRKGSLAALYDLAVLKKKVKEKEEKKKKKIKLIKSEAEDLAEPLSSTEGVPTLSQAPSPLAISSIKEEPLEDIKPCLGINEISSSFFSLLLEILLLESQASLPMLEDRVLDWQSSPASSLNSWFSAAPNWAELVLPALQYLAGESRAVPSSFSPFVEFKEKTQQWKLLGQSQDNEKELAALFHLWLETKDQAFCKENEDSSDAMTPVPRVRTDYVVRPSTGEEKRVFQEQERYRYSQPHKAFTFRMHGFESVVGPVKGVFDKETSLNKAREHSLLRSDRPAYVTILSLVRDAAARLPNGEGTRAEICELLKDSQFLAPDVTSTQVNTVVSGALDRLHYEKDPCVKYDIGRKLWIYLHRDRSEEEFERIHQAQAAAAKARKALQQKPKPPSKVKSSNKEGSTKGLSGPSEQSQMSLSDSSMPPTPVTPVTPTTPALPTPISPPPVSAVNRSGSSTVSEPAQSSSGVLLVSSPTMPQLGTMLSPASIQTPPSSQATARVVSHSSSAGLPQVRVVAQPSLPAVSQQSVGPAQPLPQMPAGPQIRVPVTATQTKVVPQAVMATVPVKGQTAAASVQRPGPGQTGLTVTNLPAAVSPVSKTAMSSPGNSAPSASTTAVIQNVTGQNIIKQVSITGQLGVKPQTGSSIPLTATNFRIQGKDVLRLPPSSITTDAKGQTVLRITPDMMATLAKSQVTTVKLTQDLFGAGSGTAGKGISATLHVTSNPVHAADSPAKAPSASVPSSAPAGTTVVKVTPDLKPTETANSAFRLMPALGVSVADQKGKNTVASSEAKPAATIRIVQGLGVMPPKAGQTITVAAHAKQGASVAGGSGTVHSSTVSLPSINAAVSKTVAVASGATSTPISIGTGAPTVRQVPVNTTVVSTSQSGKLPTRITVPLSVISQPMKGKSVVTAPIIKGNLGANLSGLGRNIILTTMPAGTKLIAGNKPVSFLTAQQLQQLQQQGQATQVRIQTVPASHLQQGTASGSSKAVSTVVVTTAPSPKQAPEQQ

No constants are given. Whether binding was seen depends on the method and setting. Binding seen in cells or lysates may run through a third protein. A yes stands for co-enrichment or nearness to the bait. Other partners may have been found.

In the test the target is His-tagged Amuc_1409 protein (Akkermansia muciniphila) (UniProt B2UKV9). Put plainly: affinity purification with mass spectrometry; Dynabeads His-tag magnetic beads preincubated with vehicle or His-tagged Amuc_1409 in PBS for 2 h at room temperature, washed with 0.01% PBST, incubated with Tregs cell lysates overnight at 4 °C, washed four times with 0.01% PBST; bound proteins identified by label-free quantitative proteomics; only the target purified.

For “nuclear factor related to kappa-B-binding protein (Nfrkb), endogenous in Tregs (from UniProt Q6PIJ4 1-1296)”, the binding result was “binds”.

B1: annexin A4 (Anxa4), endogenous in Tregs (protein, UniProt P97429 1-319)
chain: MEAKGGTVKAASGFNATEDAQTLRKAMKGLGTDEDAIIGILAYRNTAQRQEIRSAYKSTIGRDLIEDLKSELSSNFEQVILGLMTPTVLYDVQELRRAMKGAGTDEGCLIEILASRTPEEIRRINQTYQQQYGRSLEEDICSDTSFMFQRVLVSLSAAGRDEGNYLDDALMKQDAQELYEAGEKRWGTDEVKFLSILCSRNRNHLLHVFDEYKRISQKDIEQSIKSETSGSFEDALLAIVKCMRSKPSYFAERLYKSMKGLGTDDNTLIRVMVSRAEIDMLDIRASFKRLYGKSLYSFIKGDTSGDYRKVLLVLCGGDD
With B1, the binding entry is “binds”.

B2: ATP-dependent RNA helicase DHX8 (Dhx8), endogenous in Tregs (enzyme, UniProt A2A4P0 1-1244)
chain: MAVAVAAAGVLMGSEPGPAEELAKLEYLSLVSKVCTELDNHLGINDKDLAEFVISLAEKNTTFDTFKASLVKNGAEFTDSLISNLLRLIQTMRPPAKPSTSKDPVVKPKTEKEKLRELFPVLCQPDNPSARTMLDEEDVKVAVDVLKELEALMPSAAGQEKQRDPEHRDRTKKKKRSRSRDRDRDRDRDRDRDRDRDRDRDKDRERDRDRERDRERDRERDHKRRHRSRSRSHSRTRERTKGKSRYRSRSRSQSPFKDRKDREKYGERNLDRWRDKHVDRPPPEEPAIGDIYNGKVTSIMQFGCFVQLEGLRKRWEGLVHISELRREGRVANVADVVSKGQRVKVKVLSFTGTKTSLSMKDVDQETGEDLNPNRRRNLVGETNEETSMRNPDRPTHLSLVSAPEVEDDSLERKRLTRISDPEKWEIKQMIAANVLSKEEFPDFDEETGILPKVDDEEDEDLEIELVEEEPPFLRGHTKQSMDMSPIKIVKNPDGSLSQAAMMQSALAKERRELKQAQREAEMDSIPMGLNKHWVDPLPDAEGRQIAANMRGIGMMPNDIPEWKKHAFGGNKASYGKKTQMSILEQRESLPIYKLKEQLVQAVHDNQILIVIGETGSGKTTQITQYLAEAGYTSRGKIGCTQPRRVAAMSVAKRVSEEFGCCLGQEVGYTIRFEDCTSPETVIKYMTDGMLLRECLIDPDLTQYAIIMLDEAHERTIHTDVLFGLLKKTVQKRQDMKLIVTSATLDAVKFSQYFYEAPIFTIPGRTYPVEILYTKEPETDYLDASLITVMQIHLTEPPGDILVFLTGQEEIDTACEILYERMKSLGPDVPELIILPVYSALPSEMQTRIFDPAPPGSRKVVIATNIAETSLTIDGIYYVVDPGFVKQKVYNSKTGIDQLVVTPISQAQAKQRAGRAGRTGPGKCYRLYTERAYRDEMLTTNVPEIQRTNLASTVLSLKAMGINDLLSFDFMDAPPMETLITAMEQLYTLGALDDEGLLTRLGRRMAEFPLEPMLCKMLIMSVHLGCSEEMLTIVSMLSVQNVFYRPKDKQALADQKKAKFHQTEGDHLTLLAVYNSWKNNKFSNPWCYENFIQARSLRRAQDIRKQMLGIMDRHKLDVVSCGKSTVRVQKAICSGFFRNAAKKDPQEGYRTLIDQQVVYIHPSSALFNRQPEWVVYHELVLTTKEYMREVTTIDPRWLVEFAPAFFKVSDPTKLSKQKKQQRLEPLYNRYEEPNAWRISRAFRRR
Turning to B2, the binding entry is recorded as “binds”.

B3: protein phosphatase 1 regulatory subunit 12A (Ppp1r12a), endogenous in Tregs (protein, UniProt Q9DBR7 1-1029)
chain: MKMADAKQKRNEQLKRWIGSETDLEPPVVKRQKTKVKFDDGAVFLAACSSGDTDEVLKLLHRGADINYANVDGLTALHQACIDDNVDMVKFLVENGANINQPDNEGWIPLHAAASCGYLDIAEFLIGQGAHVGAVNSEGDTPLDIAEEEAMEELLQNEVNRQGVDIEAARKEEERVMLRDARQWLNSGHISDVRHAKSGGTALHVAAAKGYTEVLKLLIQAGYDVNIKDYDGWTPLHAAAHWGKEEACRILVDNLCDMETVNKVGQTAFDVADEDILGYLEELQKKQTLLHSEKRDKKSPLIESTANMENNQPQKAFKNKETLIIEPEKNASRIESLEHEKADEEEEGKKDESSCSSEEDEEDDSESEAETDKTKPMASVSNAHTSSTQAAPAAVTAPTLSSNQGTPTSPVKKFPISTTKISPKEEERKDESPASWRLGLRKTGSYGALAEISASKEAQKEKDTAGVMRSASSPRLSSSLDNKEKEKDNKGTRLAYVTPTIPRRLASTSDIEEKENRESSSLRTSSSYTRRKWEDDLKKNSSINEGSTYHRSCSFGRRQDDLISCSVPSTTSTPTVTSAAGLQRSLPSSTSTAAKTPPGSSSAGTQSSTSNRLWAEDSTEKEKDSAPTAVTIPVAPTVVNAAAPSTTTLTTTTAGTVSEVRERRRSYLTPVRDEESESQRKARSRQARQSRRSTQGVTLTDLQEAEKTIGRSRSTRTREQENEEKEKEEKEKQDKEKQEEKKESEASREDEYKQKYSRTYDETYTRYRPVSTSSSSAPSSSSLSTLGSTLYASSQLNRPNSLVGITSAYSRGLAKENEREGEKKEEEKEGEDKSQPKSIRERRRPREKRRSTGVSFWTQDSDENEQERQSDTEDGSSKRETQTDSVSRYDSSSTSSSDRYDSLLGRSASYSYLEDRKPYSSRLEKDDSTDFKKLYEQILAENEKLKAQLHDTNMELTDLKLQLEKATQRQERFADRSQLEMEKRERRALERRISEMEEELKMLPDLKADNQRLKDENGALIRVISKLSK
For the molecule B3, the binding entry was “binds”.
